PubChem BioAssay AID686938 – Drosophila RNAi Screening Center, 2013
The deposit covers about 23,000 reagents; shown is an unselected part of those with a known target gene and a result. Of all reagents, 75 (0.33%) are marked active. 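Raw plate signals without normalisation; calls rest on plate z-scores that were not deposited; ratio present for only 364 wells.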 Unmarked entries are inactive. Reagent sequences are not shown. The record does not give: the dose of the treatment.

- Test: 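Looking for CRAC channel components and the factors controlling them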 (primary screen)
- Cells: Drosophila S2R+ cells
- Knock-down reagent: long dsRNA against Drosophila genes, about 0.25 µg dsRNA per well, roughly 10,000 cells
- Timing: 5 days of knock-down before the calcium assay
- Conditions: thapsigargin (SERCA pump blocker) to empty calcium stores; entry signal taken 4 min after adding it
- Read-out: 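Per-well fluo-4 fluorescence in two replicates, unnormalised, measured in resting cells and 4 min after store depletion by the SERCA blocker thapsigargin; ratio of the two present in few wells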
- Reading the numbers: calcium entry signal: higher = stronger calcium signal after store depletion; resting calcium signal: higher = higher resting calcium signal
- Rule for the call: 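Hit if the duplicate-averaged plate z-score for entry over resting signal is under −3; wells with weak total dye signal (Fmax z < −2) or more than 5 off-targets removed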
- Calls: active = strongly reduced calcium entry; inactive = no strong reduction

| gene knocked down | PubChem SID | calcium entry signal, replicate 1 (fluorescence units) | calcium entry signal, replicate 2 (fluorescence units) | resting calcium signal, replicate 1 (fluorescence units) | resting calcium signal, replicate 2 (fluorescence units) |
| --- | --- | --- | --- | --- | --- |
| mip40 (GeneID 37215) | SID104186333 | 3.00e7 | 2.93e7 | 1.44e7 | 1.42e7 |
| RpS28b (GeneID 31897) | SID104198050 | 1.25e7 | 1.54e7 | 8.74e6 | 1.00e7 |
| Naa80 (GeneID 41195) | SID104196221 | 3.24e7 | 4.04e7 | 1.63e7 | 1.99e7 |
| CG13743 (GeneID 35911) | SID104184931 | 2.00e7 | 4.99e7 | 1.02e7 | 2.75e7 |
| CG13743 (GeneID 35911) | SID104186206 | 3.67e7 | 3.75e7 | 2.01e7 | 1.80e7 |
| CG13743 (GeneID 35911) | SID104202136 | 4.17e7 | 3.43e7 | 2.46e7 | 1.69e7 |
| CG15047 (GeneID 32845) | SID104199415 | 4.05e7 | 3.91e7 | 2.02e7 | 1.74e7 |
| CG15047 (GeneID 32845) | SID104201186 | 3.73e7 | 3.07e7 | 2.16e7 | 1.52e7 |
| disco (GeneID 32579) | SID104200115 | 5.53e7 | 3.47e7 | 2.44e7 | 1.44e7 |
| CG18581 (GeneID 39633) | SID104190116 | 3.77e7 | 6.43e7 | 1.93e7 | 2.42e7 |
| Desat1 (GeneID 117369) | SID104196460 | 3.16e7 | 3.57e7 | 1.94e7 | 2.14e7 |
| CR40441 (GeneID 10178882) | SID104202274 | 4.16e7 | 3.79e7 | 2.22e7 | 1.78e7 |
| pea (GeneID 36561) | SID104186912 | 2.25e7 | 2.90e7 | 1.43e7 | 1.70e7 |
| CG30076 (GeneID 246438) | SID104185286 | 5.19e7 | 3.93e7 | 3.26e7 | 1.67e7 |
| Cyp28d2 (GeneID 33748) | SID104183091 | 3.63e7 | 3.70e7 | 1.81e7 | 1.84e7 |
| Cyt-c-p (GeneID 34996) | SID104183102 | 3.44e7 | 2.17e7 | 1.64e7 | 1.08e7 |
| beta4GalNAcTA (GeneID 36585) | SID104185736 | 4.66e7 | 3.35e7 | 2.39e7 | 1.79e7 |
| Rab2 (GeneID 35577) | SID104184809 | 4.40e7 | – | 2.18e7 | – |
| HtrA2 (GeneID 41756) | SID104196217 | 2.54e7 | 5.25e7 | 1.31e7 | 7.00e7 |
| CG14937 (GeneID 34591) | SID104182211 | 3.18e7 | 3.83e7 | 1.66e7 | 1.80e7 |
| Rsbp15 (GeneID 41481) | SID104193968 | 1.89e7 | 2.43e7 | 1.07e7 | 1.17e7 |
| Wdr81 (GeneID 34616) | SID104182777 | 5.21e7 | – | 2.56e7 | – |
| Mad1 (GeneID 35954) | SID104187353 | 3.85e7 | 2.66e7 | 1.52e7 | 1.25e7 |
| Fadd (GeneID 42594) | SID104193914 | 4.24e7 | 5.15e7 | 3.43e7 | 2.30e7 |
